Assay results as given in publication PMC12963305.
No constants are given. Whether binding was seen depends on the method and setting. Some results given as binding are weak or reduced against the parent protein; the word gives no strength.

The chains behind the UniProt entries cited, without tags or fusion partners. Where a name states a change or a piece, a line headed by the entry shows the natural chain unless it says otherwise.
UniProt P70658: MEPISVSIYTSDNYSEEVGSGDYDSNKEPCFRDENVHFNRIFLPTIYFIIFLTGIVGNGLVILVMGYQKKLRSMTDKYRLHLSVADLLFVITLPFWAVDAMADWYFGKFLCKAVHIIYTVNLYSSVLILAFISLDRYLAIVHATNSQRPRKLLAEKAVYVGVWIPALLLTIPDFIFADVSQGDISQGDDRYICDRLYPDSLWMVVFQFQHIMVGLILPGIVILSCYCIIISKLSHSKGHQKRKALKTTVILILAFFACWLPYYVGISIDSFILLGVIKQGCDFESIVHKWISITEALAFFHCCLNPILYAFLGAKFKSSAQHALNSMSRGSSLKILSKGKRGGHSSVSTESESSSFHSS
UniProt P40224: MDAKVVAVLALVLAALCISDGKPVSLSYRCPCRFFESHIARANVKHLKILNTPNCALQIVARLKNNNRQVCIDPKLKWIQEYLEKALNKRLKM

Target: murine chemokine receptor CXCR4 in the MALAR-Y2H receptor vector (mouse) (UniProt P70658)
Assay: two-hybrid; MALAR-Y2H (membrane-anchored ligand and receptor, split ubiquitin) in S. cerevisiae Y2HGold; ligands in pGAD_SP-WBP1_cloning_linker_TMP_Cub_GAL4, receptors in pGBKT7_SP_OST1_cloning_NubG; growth on Leu-/Trp-/His- triple and Leu-/Trp-/Ade-/His- quadruple dropout plates at three densities, quantified as gray value (Fiji/ImageJ)

- binding: binds
Substance: murine chemokine CXCL12 in the MALAR-Y2H ligand vector (from UniProt P40224 1-93)
